The subject of this data set is prostate cancer specimens. Briefly: Gene expression patterns (fold change) of subtype-enriched genes in PCS1, PCS2 and PCS3. Also on record: species or system human.

Consider DKK1, for which, under “gene expression in PCS1 subtype”, the “Fold Change PCS1” value is reported as −0.3736. In addition, the “Fold Change PCS2” value (gene expression in PCS2 subtype) was −0.2958. For the same substance, under “gene expression in PCS3 subtype”, the “Fold Change PCS3” value worked out at 0.5922. The “Fold change in PCS1” value (subtype-enriched gene (SEG) expression, subtype PCS1) is listed as −0.37. The “Fold change in PCS2” value (subtype-enriched gene (SEG) expression, subtype PCS2) was −0.3. In addition, the “Fold change in PCS3” value (subtype-enriched gene (SEG) expression, subtype PCS3) came to 0.592.

Values taken from patent publication US11174518B2, “Method of classifying and diagnosing cancer” (Cedars-Sinai Medical Center, priority 2015, dated 2021).
